Drug screen on melanoma cell lines: apoptosis marker

From a melanoma drug combination screen (doi:10.1371/journal.pone.0140310); values rounded.

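The test systems are human melanoma cell lines, treated with two drugs together for 72 h and then stained and imaged. Each value is the cleaved-PARP-positive fraction of nuclei relative to DMSO-treated wells, in %, so that 100 equals the control and higher values mean more apoptosis. Concentrations were fixed for each drug; these are the higher of two levels. No replicate spread is given; individual values may be noisy. The marker varies much from line to line, for technical or biological reasons.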 This is part of the screen, not chosen by result. An entry leaves out what has no value listed here. A dash means that no value is listed here.

First drug in all entries: everolimus, 0.1 µM, CO[C@H]1C[C@@H]2CC[C@@H](C)[C@@](O)(O2)C(=O)C(=O)N2CCCC[C@H]2C(=O)O[C@H]([C@H](C)C[C@@H]2CC[C@@H](OCCO)[C@H](OC)C2)CC(=O)[C@H](C)/C=C(\C)[C@@H](O)[C@@H](OC)C(=O)[C@H](C)C[C@H](C)/C=C/C=C/C=C/1C

Drug key:
lestaurtinib, 0.02 µM: C[C@]12O[C@H](C[C@]1(O)CO)n1c3ccccc3c3c4c(c5c6ccccc6n2c5c31)CNC4=O
LFM-A13, 10 µM: C/C(O)=C(\C#N)C(=O)Nc1cc(Br)ccc1Br
bortezomib, 0.005 µM: CC(C)C[C@H](NC(=O)[C@H](Cc1ccccc1)NC(=O)c1cnccn1)B(O)O
tamatinib, 2 µM: COc1cc(Nc2ncc(F)c(Nc3ccc4c(n3)NC(=O)C(C)(C)O4)n2)cc(OC)c1OC
CX-4945, 2 µM: O=C(O)c1ccc2c(c1)nc(Nc1cccc(Cl)c1)c1ccncc12
AS-252424, 5 µM: O=C1NC(=O)/C(=C/c2ccc(-c3ccc(F)cc3O)o2)S1
tanespimycin, 0.01 µM: C=CCNC1=C2C[C@@H](C)C[C@H](OC)[C@H](O)[C@@H](C)/C=C(\C)[C@H](OC(N)=O)[C@@H](OC)/C=C\C=C(/C)C(=O)NC(=CC1=O)C2=O
MK-1775, 0.1 µM: C=CCn1c(=O)c2cnc(Nc3ccc(N4CCN(C)CC4)cc3)nc2n1-c1cccc(C(C)(C)O)n1
vincristine, 0.0005 µM: CC[C@]1(O)C[C@H]2CN(CCc3c([nH]c4ccccc34)[C@@](C(=O)OC)(c3cc4c(cc3OC)N(C=O)[C@H]3[C@@](O)(C(=O)OC)[C@H](OC(C)=O)[C@]5(CC)C=CCN6CC[C@]43[C@@H]65)C2)C1
dasatinib, 0.02 µM: Cc1nc(Nc2ncc(C(=O)Nc3c(C)cccc3Cl)s2)cc(N2CCN(CCO)CC2)n1
perifosine, 2 µM: CCCCCCCCCCCCCCCCCCOP(=O)([O-])OC1CC[N+](C)(C)CC1
sorafenib, 2 µM: CNC(=O)c1cc(Oc2ccc(NC(=O)Nc3ccc(Cl)c(C(F)(F)F)c3)cc2)ccn1
GW2580, 5 µM: COc1ccc(COc2ccc(Cc3cnc(N)nc3N)cc2OC)cc1
L-779450, 1 µM: Oc1cc(-c2nc(-c3ccccc3)[nH]c2-c2ccncc2)ccc1Cl
nutlin-3, 0.5 µM: COc1ccc(C2=N[C@@H](c3ccc(Cl)cc3)[C@@H](c3ccc(Cl)cc3)N2C(=O)N2CCNC(=O)C2)c(OC(C)C)c1
tipifarnib, 0.05 µM: Cn1cncc1[C@@](N)(c1ccc(Cl)cc1)c1ccc2c(c1)c(-c1cccc(Cl)c1)cc(=O)n2C
MK-2206, 2 µM: NC1(c2ccc(-c3nc4ccn5c(=O)[nH]nc5c4cc3-c3ccccc3)cc2)CCC1
IMD-0354, 0.08 µM: O=C(Nc1cc(C(F)(F)F)cc(C(F)(F)F)c1)c1cc(Cl)ccc1O
VX-702, 2 µM: NC(=O)c1ccc(N(C(N)=O)c2c(F)cccc2F)nc1-c1ccc(F)cc1F
dovitinib, 0.5 µM: CN1CCN(c2ccc3nc(-c4c(N)c5c(F)cccc5[nH]c4=O)[nH]c3c2)CC1
STA-4783, 0.03 µM: CN(NC(=O)CC(=O)NN(C)C(=S)c1ccccc1)C(=S)c1ccccc1

Second drug,RPMI-7951,UACC-257,LOX IMVI,COLO 792,SK-MEL-30,UACC-62,SK-MEL-2,COLO 829,MEL-HO,SK-MEL-28,WM115,MeWo,WM3619,RVH-421,MZ2-MEL
CX-4945,354,86.8,379,274,180,217,378,262,381,60.6,599,133,127,96.4,280
vincristine,188,77.2,237,71.0,90.3,311,309,231,55.6,180,437,120,177,136,151
VX-702,135,114,221,121,193,376,74.9,124,46.2,68.4,319,137,110,134,-
GW2580,94.9,42.9,73.3,69.9,202,273,208,198,91.2,462,29.2,80.7,129,27.2,78.4
L-779450,187,70.0,130,131,123,733,533,207,235,78.4,174,67.0,135,79.2,139
bortezomib,663,50.5,601,205,378,347,403,2300,113,147,1300,2810,3320,476,18000
dovitinib,67.6,34.4,162,443,111,347,81.5,331,124,95.4,488,139,158,52.1,247
nutlin-3,63.8,123,133,365,46.0,240,92.2,114,123,103,264,121,139,109,72.6
dasatinib,191,101,289,196,86.7,359,130,189,170,78.8,614,41.5,136,198,176
LFM-A13,147,54.0,134,32.8,326,390,133,211,62.6,143,88.4,219,287,139,115
STA-4783,67.4,40.2,58.1,676,222,119,16.1,208,99.0,287,252,543,1320,119,108
sorafenib,49.4,38.8,141,56.2,83.8,276,175,169,91.3,175,230,145,114,27.1,154
AS-252424,60.8,58.3,60.4,74.2,147,386,94.2,144,57.2,77.3,105,114,138,49.2,119
MK-2206,159,83.1,85.1,311,183,228,335,165,44.5,136,762,152,118,82.6,162
IMD-0354,152,26.3,71.5,225,57.6,218,110,40.9,145,163,184,155,168,99.4,51.2
MK-1775,90.9,86.4,212,248,530,161,107,65.1,105,320,577,122,288,34.3,311
lestaurtinib,79.1,137,166,651,177,260,192,133,98.7,429,478,33.9,134,71.2,207
perifosine,416,71.4,222,258,122,336,80.1,322,154,197,127,94.6,145,62.4,-
tanespimycin,161,120,150,305,119,250,296,279,57.8,105,7880,293,179,115,187
tipifarnib,156,69.5,184,168,173,191,178,200,467,92.8,380,18.6,108,155,243
tamatinib,610,212,149,320,49.1,194,125,161,92.3,39.0,85.3,97.9,110,155,140

For reference, 3 entries once more:

{"second drug": "tanespimycin", "RPMI-7951": 161, "UACC-257": 120, "LOX IMVI": 150, "COLO 792": 305, "SK-MEL-30": 119, "UACC-62": 250, "SK-MEL-2": 296, "COLO 829": 279, "MEL-HO": 57.8, "SK-MEL-28": 105, "WM115": 7880, "MeWo": 293, "WM3619": 179, "RVH-421": 115, "MZ2-MEL": 187}
{"second drug": "bortezomib", "RPMI-7951": 663, "UACC-257": 50.5, "LOX IMVI": 601, "COLO 792": 205, "SK-MEL-30": 378, "UACC-62": 347, "SK-MEL-2": 403, "COLO 829": 2300, "MEL-HO": 113, "SK-MEL-28": 147, "WM115": 1300, "MeWo": 2810, "WM3619": 3320, "RVH-421": 476, "MZ2-MEL": 18000}
{"second drug": "dovitinib", "RPMI-7951": 67.6, "UACC-257": 34.4, "LOX IMVI": 162, "COLO 792": 443, "SK-MEL-30": 111, "UACC-62": 347, "SK-MEL-2": 81.5, "COLO 829": 331, "MEL-HO": 124, "SK-MEL-28": 95.4, "WM115": 488, "MeWo": 139, "WM3619": 158, "RVH-421": 52.1, "MZ2-MEL": 247}